Data published in article PMC6546392.
These are yes or no findings as the source states them, for the method shown. Some binding calls cover weakened binding; strength is not graded here. Where a sequence is shown, tags or fusion partners need not be part of it.

Chains of the proteins cited; added tags and fusions are not shown.
UniProt Q24368: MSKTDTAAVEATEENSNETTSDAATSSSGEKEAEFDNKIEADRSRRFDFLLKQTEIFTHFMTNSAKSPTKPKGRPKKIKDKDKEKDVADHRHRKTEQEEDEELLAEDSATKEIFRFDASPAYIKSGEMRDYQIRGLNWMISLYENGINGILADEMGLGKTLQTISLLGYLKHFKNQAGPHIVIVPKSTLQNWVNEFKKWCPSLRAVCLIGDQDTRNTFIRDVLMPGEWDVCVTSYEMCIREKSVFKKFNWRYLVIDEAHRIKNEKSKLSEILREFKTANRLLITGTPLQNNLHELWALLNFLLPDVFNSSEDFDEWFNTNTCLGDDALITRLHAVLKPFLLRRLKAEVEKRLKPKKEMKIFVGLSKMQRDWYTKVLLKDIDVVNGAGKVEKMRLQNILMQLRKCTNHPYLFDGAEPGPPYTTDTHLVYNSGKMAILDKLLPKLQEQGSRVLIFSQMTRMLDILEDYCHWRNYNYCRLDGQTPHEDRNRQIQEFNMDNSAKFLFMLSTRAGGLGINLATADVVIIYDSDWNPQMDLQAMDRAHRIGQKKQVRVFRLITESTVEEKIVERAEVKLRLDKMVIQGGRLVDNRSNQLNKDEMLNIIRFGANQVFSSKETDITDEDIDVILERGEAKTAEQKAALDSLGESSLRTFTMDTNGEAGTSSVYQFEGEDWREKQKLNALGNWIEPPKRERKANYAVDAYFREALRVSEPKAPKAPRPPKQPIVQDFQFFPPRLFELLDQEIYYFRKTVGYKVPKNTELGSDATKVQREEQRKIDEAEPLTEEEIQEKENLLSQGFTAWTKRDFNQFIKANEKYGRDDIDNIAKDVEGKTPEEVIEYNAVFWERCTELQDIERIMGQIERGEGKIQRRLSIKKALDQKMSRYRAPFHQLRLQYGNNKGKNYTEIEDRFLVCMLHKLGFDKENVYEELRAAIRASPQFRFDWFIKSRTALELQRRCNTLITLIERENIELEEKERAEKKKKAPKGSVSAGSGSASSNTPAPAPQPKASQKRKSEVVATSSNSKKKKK

Biological target: T1, Acf1 regulatory subunit of the Drosophila ACF complex, FLAG-tagged (Drosophila melanogaster) (UniProt Q9V9T4)
T1 sequence: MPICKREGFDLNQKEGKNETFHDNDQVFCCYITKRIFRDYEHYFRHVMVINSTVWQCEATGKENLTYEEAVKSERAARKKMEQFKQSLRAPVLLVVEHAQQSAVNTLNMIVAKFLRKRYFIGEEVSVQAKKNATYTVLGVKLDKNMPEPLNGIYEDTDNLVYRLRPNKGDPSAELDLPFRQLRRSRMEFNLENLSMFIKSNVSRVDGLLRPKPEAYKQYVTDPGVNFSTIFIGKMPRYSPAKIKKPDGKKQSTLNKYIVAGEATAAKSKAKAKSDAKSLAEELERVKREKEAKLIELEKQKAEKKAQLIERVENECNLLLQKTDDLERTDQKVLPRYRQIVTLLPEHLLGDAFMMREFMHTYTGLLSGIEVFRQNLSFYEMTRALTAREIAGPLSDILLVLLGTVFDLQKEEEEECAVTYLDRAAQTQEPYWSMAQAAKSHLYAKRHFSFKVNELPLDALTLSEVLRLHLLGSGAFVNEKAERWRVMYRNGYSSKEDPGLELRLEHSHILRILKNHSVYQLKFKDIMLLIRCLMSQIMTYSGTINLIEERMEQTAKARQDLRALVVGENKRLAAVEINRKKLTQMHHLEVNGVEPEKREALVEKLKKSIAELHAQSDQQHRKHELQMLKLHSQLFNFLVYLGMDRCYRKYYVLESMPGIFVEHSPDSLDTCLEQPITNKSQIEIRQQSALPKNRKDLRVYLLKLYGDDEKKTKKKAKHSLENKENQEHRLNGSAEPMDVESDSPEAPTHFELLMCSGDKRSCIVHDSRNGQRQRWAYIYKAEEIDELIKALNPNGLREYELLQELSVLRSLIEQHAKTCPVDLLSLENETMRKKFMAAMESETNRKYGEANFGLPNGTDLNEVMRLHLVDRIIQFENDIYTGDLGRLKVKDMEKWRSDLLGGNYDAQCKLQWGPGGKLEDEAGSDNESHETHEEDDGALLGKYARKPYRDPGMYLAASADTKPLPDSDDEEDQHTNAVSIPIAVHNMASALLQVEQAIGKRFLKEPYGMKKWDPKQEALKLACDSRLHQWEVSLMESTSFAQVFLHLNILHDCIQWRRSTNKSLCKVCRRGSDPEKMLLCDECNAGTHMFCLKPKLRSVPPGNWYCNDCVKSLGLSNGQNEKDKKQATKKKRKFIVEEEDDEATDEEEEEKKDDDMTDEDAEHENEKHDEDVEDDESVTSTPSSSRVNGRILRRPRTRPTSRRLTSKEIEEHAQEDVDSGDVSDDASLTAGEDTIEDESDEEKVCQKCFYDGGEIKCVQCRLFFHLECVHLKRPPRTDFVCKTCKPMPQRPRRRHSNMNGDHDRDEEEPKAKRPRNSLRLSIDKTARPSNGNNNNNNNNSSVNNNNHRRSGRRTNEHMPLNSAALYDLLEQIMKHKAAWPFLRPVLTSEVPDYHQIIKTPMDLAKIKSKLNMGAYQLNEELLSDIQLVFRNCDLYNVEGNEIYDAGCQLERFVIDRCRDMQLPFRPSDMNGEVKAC
Test: co-IP; FLAG pulldown of the bought ACF complex: 15 µl of 100 nM ACF on 10 µl anti-FLAG M2 beads in a spin column, 30 min shaking at 4°C, slide buffer without BSA (20 mM HEPES-KOH pH 7.5, 100 mM KCl, 5 mM MgCl2, 1 mM DTT, 5% sucrose). Iswi was followed only by the nucleosome sliding activity left in the flow-through (native gel), not by a blot. Controls: column without beads, and beads pre-blocked with 3xFLAG peptide; both purified

binding: binds
Substance: Iswi ATPase subunit of the Drosophila ACF complex (from UniProt Q24368 1-1027) (enzyme)
